These are yes or no findings as the source states them, for the method shown. Some entries that bind do so weakly or less than the wild type.
Target: human full-length RS1 fused to the GAL4 DNA binding domain (pBind-RS1) (human) (UniProt O15537)
Test: two-hybrid; mammalian two-hybrid (luciferase reporter) in Cos1 cells: pBind-RS1 (GAL4 DNA binding domain, bait), pACT-Cav1.4-N terminal (VP16 activation domain), pG5Luc, 100 ng each; controls with empty pBind or pACT; n = 6

Amino acid sequences for entries named in this document (tags omitted). Residues count along the entry.
UniProt O15537: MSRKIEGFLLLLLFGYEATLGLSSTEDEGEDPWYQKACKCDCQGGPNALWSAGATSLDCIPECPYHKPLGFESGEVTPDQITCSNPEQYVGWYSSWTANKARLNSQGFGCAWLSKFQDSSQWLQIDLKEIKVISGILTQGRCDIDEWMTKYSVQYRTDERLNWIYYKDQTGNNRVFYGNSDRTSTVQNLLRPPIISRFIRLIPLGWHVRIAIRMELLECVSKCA
UniProt O60840, residues 1-500: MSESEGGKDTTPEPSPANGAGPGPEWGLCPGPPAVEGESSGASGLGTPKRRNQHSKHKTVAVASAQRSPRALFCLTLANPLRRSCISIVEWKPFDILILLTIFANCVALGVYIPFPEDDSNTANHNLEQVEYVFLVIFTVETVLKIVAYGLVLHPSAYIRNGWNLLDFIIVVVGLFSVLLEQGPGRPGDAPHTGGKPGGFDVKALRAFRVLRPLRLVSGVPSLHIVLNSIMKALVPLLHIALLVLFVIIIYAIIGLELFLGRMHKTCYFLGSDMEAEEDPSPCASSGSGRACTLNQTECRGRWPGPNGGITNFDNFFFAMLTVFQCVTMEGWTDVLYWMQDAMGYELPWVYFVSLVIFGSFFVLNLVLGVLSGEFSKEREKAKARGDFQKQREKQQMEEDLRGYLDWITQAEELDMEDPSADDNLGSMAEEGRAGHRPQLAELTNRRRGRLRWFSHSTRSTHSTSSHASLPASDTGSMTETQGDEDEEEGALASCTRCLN

binding: binds
Substance: human Cav1.4 N-terminal fragment fused to the VP16 activation domain (pACT-Cav1.4-N terminal) (from UniProt O60840 1-500) (domain or fragment)

Reference: publication PMC5550728
